From US20220112255A1
These are yes or no findings as the source states them, for the method shown. Some results given as binding are weak or reduced against the parent protein; the word gives no strength. Sequences can lack the tags named with a protein.

Target: T1, C-terminal His-tagged HER4 receptor extracellular domain (ECD) construct (UniProt Q15303)
T1 sequence (looked up): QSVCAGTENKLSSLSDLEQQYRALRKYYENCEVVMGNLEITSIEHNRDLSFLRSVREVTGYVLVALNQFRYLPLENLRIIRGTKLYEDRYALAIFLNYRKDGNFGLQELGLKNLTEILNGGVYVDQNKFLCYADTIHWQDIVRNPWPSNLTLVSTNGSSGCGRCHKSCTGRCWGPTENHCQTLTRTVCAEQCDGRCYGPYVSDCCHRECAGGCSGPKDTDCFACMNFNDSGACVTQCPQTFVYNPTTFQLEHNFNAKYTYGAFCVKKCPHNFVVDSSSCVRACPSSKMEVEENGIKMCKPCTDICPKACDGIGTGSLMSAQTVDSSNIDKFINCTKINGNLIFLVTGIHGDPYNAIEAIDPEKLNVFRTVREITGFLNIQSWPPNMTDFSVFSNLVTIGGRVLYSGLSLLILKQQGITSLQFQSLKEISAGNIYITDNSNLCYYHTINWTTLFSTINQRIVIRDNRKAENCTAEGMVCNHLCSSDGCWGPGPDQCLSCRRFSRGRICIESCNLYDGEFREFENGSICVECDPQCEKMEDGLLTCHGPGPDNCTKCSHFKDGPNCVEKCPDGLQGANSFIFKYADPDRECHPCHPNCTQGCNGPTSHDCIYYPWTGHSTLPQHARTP
Experiment: ELISA: His-tagged HER4 ECD captured by anti-His antibody; NRG-Fc; anti-human Fc-AP detection

Binder: DHEEPCGPSHKSFCLNGGLCYVIPTIPSPFCRCVENYTGARCEEVFL (Fc fusion, not shown: a dimerising Fc or GST) [WT NRG4 Fc fusion (parental hFcNRG4)]
- binding: binds
